Experimental data: the supplement of paper PMC10849652
This is one part of the list.

Amino acid sequences for entries named in this document (tags omitted). A change or cut given only in a name is not applied to a line headed by its entry.
UniProt Q03701: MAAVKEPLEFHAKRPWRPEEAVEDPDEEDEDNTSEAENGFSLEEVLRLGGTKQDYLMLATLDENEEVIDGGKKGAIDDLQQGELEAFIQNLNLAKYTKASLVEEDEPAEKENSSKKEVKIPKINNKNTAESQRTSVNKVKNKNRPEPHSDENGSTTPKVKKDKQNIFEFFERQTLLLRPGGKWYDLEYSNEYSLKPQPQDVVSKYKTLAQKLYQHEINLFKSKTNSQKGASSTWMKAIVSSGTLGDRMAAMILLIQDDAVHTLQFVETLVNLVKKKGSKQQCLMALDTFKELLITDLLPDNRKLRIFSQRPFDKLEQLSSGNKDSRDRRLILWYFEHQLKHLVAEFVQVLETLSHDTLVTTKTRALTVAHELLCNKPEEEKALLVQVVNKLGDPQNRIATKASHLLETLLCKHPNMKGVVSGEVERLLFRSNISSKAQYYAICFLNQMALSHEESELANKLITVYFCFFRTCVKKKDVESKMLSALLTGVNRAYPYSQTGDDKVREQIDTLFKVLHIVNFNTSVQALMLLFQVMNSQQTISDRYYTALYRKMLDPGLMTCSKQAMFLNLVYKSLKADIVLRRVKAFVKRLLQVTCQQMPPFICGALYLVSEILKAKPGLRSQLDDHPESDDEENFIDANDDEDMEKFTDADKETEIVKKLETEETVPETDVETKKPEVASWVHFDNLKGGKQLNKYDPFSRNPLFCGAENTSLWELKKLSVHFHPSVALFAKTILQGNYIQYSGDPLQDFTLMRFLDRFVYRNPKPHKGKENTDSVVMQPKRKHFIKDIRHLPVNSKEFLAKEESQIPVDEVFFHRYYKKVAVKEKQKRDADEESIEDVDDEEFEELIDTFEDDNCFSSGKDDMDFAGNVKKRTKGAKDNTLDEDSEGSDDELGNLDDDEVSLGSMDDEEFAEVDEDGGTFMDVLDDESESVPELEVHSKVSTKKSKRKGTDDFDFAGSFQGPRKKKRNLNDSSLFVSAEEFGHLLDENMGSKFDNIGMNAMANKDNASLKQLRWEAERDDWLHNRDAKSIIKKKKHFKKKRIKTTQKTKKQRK
UniProt P50613: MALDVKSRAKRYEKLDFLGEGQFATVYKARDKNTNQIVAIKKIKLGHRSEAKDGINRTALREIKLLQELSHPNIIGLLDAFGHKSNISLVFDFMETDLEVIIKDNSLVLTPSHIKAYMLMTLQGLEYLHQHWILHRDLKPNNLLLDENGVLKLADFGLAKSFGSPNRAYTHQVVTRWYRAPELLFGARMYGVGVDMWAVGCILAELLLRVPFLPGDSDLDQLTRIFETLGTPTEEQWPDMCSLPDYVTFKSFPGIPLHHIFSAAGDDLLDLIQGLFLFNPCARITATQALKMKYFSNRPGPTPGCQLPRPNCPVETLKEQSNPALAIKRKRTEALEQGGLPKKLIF
UniProt Q9Y6H1: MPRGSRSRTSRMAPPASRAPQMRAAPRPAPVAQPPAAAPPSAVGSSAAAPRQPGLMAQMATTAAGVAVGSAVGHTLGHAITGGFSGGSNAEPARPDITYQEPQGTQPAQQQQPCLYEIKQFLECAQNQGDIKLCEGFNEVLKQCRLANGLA
UniProt Q9Y5S2: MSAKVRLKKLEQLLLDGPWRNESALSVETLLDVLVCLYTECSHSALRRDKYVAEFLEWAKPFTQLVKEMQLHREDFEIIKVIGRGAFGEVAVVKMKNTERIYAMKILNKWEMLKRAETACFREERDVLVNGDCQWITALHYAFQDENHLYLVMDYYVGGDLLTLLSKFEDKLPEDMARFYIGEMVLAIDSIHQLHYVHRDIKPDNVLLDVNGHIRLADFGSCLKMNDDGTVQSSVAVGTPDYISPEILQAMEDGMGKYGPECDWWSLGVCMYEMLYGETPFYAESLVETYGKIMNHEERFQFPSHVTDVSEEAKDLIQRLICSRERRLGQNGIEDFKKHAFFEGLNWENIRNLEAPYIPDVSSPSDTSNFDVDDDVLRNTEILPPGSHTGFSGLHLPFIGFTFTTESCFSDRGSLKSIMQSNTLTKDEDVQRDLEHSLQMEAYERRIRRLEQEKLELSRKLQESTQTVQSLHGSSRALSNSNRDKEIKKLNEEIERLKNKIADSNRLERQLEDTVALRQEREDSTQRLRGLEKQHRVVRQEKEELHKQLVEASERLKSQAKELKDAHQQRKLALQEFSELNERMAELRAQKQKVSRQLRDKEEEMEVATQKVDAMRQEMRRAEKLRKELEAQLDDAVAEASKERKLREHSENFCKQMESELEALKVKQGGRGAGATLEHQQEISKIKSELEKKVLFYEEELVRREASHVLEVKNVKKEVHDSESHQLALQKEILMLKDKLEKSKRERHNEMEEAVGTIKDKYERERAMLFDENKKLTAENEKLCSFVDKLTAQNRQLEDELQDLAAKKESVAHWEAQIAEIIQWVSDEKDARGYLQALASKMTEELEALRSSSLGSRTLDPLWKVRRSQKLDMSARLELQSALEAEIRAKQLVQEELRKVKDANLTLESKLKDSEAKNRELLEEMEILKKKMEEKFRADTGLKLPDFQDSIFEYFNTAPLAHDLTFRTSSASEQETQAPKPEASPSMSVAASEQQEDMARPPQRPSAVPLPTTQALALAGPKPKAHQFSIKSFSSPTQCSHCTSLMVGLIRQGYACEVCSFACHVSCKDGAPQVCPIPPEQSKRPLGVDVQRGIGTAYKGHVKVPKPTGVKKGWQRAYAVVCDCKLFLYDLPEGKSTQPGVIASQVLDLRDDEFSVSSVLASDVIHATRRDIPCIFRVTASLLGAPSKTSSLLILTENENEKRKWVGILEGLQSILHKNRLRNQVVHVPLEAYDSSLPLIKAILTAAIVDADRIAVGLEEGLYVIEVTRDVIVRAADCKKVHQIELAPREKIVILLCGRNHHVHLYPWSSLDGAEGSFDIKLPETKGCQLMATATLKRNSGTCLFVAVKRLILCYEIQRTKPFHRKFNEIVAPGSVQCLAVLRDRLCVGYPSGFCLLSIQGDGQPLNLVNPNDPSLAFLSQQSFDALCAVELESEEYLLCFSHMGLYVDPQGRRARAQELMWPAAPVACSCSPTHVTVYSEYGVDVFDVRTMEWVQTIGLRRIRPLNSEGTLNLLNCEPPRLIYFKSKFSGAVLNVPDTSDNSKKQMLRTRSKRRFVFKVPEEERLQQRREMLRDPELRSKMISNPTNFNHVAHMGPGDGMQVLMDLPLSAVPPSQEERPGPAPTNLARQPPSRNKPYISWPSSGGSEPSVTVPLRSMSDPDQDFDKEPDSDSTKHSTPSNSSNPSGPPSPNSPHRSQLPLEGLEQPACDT
UniProt Q66GS9: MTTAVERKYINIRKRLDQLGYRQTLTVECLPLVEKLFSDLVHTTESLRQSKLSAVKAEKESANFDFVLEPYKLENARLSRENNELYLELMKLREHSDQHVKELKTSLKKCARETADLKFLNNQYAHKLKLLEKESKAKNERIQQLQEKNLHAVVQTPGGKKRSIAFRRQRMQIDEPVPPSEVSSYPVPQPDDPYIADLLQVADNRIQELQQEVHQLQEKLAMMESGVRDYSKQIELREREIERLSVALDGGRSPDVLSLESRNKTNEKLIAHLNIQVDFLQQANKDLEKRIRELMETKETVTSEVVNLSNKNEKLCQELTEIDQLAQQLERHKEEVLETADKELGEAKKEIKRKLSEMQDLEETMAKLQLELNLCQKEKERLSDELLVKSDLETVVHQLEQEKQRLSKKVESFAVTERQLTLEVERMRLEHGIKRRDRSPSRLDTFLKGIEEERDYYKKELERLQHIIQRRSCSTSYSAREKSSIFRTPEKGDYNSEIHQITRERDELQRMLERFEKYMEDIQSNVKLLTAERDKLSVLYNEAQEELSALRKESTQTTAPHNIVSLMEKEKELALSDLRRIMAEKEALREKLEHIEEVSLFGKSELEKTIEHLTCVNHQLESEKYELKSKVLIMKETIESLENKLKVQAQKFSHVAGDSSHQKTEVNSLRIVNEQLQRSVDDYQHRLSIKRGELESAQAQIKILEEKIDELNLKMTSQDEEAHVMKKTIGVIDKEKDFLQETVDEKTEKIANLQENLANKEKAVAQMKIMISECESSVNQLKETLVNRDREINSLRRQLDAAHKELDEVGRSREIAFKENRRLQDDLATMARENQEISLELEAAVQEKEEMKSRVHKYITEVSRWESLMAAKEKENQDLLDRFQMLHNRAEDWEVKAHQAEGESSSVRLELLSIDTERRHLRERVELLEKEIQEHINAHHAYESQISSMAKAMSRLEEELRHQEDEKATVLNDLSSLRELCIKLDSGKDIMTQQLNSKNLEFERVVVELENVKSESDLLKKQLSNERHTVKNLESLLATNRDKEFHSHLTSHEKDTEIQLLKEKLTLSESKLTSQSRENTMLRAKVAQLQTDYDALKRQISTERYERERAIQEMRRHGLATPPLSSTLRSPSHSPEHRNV
UniProt O15182: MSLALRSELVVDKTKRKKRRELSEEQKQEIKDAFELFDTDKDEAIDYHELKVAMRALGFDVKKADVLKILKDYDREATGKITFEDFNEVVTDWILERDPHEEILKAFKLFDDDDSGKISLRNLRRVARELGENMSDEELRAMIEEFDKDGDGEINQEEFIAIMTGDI
UniProt Q9Y3E7, whole entry, looked up: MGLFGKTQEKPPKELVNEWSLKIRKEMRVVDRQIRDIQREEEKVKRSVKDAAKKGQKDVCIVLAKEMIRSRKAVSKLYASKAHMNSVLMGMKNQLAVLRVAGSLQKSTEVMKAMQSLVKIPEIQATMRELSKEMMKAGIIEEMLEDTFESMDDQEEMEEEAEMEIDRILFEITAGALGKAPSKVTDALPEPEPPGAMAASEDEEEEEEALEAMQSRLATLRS
UniProt Q8N2Z9: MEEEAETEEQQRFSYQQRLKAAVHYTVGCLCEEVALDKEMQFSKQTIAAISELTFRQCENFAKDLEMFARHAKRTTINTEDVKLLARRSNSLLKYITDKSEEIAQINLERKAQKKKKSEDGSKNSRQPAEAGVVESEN
UniProt Q9BWS9: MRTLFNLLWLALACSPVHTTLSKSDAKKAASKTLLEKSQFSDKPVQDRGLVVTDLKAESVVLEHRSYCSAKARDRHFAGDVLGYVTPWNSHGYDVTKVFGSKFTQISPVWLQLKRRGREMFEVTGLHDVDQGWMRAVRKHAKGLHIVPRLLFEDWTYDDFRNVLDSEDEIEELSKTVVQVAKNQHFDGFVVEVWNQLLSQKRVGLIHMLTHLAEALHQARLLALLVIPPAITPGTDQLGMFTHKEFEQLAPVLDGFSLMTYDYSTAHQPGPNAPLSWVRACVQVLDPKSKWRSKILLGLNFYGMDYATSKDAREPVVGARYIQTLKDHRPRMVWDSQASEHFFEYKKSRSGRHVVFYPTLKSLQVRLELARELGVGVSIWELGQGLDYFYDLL
UniProt P49336: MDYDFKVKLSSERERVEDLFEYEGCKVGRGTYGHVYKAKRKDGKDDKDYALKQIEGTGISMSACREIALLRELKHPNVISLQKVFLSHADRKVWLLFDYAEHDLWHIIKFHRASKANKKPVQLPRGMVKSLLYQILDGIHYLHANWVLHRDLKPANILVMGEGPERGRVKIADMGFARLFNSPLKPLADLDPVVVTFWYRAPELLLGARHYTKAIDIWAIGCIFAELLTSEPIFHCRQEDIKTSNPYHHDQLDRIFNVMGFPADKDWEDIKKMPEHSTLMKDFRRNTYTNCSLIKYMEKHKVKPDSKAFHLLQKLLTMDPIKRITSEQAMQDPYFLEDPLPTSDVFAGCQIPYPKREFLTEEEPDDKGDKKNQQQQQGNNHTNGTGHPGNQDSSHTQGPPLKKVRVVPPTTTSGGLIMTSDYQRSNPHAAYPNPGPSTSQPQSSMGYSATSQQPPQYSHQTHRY
UniProt Q99459: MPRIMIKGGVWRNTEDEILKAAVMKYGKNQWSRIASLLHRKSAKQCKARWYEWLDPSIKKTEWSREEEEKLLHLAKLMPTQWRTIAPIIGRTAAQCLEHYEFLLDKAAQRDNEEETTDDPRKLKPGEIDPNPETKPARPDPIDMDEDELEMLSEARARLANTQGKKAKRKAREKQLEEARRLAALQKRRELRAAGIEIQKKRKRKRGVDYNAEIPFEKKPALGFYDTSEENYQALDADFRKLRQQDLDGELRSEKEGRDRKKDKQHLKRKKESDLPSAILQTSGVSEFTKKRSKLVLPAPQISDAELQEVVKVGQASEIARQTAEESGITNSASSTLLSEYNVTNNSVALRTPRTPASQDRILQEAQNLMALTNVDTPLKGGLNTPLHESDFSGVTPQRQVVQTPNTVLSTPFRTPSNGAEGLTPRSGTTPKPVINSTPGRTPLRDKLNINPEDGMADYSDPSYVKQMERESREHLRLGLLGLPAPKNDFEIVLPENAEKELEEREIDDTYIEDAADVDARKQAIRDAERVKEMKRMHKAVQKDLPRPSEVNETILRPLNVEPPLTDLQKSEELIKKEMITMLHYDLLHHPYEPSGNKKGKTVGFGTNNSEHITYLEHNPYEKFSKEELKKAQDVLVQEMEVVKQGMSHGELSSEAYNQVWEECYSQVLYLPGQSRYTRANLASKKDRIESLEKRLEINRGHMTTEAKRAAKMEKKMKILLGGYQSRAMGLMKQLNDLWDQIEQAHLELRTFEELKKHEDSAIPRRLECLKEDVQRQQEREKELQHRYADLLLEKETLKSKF

Key:
Test in all cases: log2 fold change, soluble protein after heating vs DMSO (PISA); higher = thermal stabilisation; K562 cells, 10 uM, 30 min; active = over 0.2 and 3.5 SD of the protein, either way, in both replicates (recomputed)
saracatinib = compound: CN1CCN(CCOc2cc(OC3CCOCC3)c3c(Nc4c(Cl)ccc5c4OCO5)ncnc3c2)CC1 [saracatinib]
Outline: (§1)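 Soluble protein was quantified by TMTpro 16plex LC-MS/MS after channel sums were equalised. It was obtained as the supernatant after 21,000xg for 90 min from pooled aliquots of K562 cells (2×10^6 cells/mL, 10 μM compound, 30 min) heated for 3 min across 48°C-58°C and extracted in PBS with 0.5% NP-40 at 4°C. Thermal stability values are relative to control samples and come from duplicates. They are given as log2 fold changes.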

sotrastaurin = compound: CN1CCN(c2nc(C3=C(c4c[nH]c5ccccc45)C(=O)NC3=O)c3ccccc3n2)CC1 [sotrastaurin]
Outline: as §1

alvocidib = compound: CN1CC[C@H](c2c(O)cc(O)c3c(=O)cc(-c4ccccc4Cl)oc23)[C@H](O)C1 [alvocidib]
Outline: as §1

Tubastatin A = compound: CN1CCc2c(c3ccccc3n2Cc2ccc(C(=O)NO)cc2)C1 [Tubastatin A]
Outline: as §1

defactinib = compound: CNC(=O)c1ccc(Nc2ncc(C(F)(F)F)c(NCc3nccnc3N(C)S(C)(=O)=O)n2)cc1 [defactinib]
Outline: as §1

[1] = compound: CNc1nc(-c2ccc3c(N)n[nH]c3c2)cc(N2C[C@@H](C(=O)NC3CCCCC3)CC[C@H]2C)n1
Outline: as §1

[2] = compound: COC(=O)[C@H](CCSC)NC(=O)C1=C(C=C(C=C1)NC[C@H](CS)N)C2=CC=CC=C2
Outline: as §1

[3] = compound: CNC(=O)C1=CC=CC=C1NC2=NC(=NC=C2Cl)NC3=C(C=C(C=C3)N4CCOCC4)OC
Outline: as §1

rucaparib = compound: CNCc1ccc(-c2[nH]c3cc(F)cc4c3c2CCNC4=O)cc1 [rucaparib]
Outline: as §1

encorafenib = compound: COC(=O)N[C@@H](C)CNc1nccc(-c2cn(C(C)C)nc2-c2cc(Cl)cc(NS(C)(=O)=O)c2F)n1 [encorafenib]
Outline: as §1

Measured: log2 fold change

CEBPZ (UniProt Q03701)
inactive: saracatinib -0.163 | sotrastaurin 0.147 | alvocidib -0.005 | Tubastatin A 0.01 | defactinib 0 | [1] 0.071 | [2] -0.193

CDK7 (UniProt P50613)
inactive: saracatinib 0.009 | sotrastaurin -0.016 | alvocidib 0.026 | Tubastatin A -0.018 | [3] -0.055 | defactinib -0.012 | rucaparib 0.003 | [1] -0.096 | encorafenib 0.005 | [2] 0.08

CDK17 isoform 2 (UniProt Q00537)
inactive: saracatinib 0.008 | sotrastaurin -0.036 | [3] -0.017 | defactinib 0.11 | rucaparib 0.494 | [1] 0.06 | encorafenib -0.027 | [2] 0.014
active: alvocidib 0.602

CENPQ (UniProt Q7L2Z9)
inactive: saracatinib -0.065 | sotrastaurin 0.182 | alvocidib 0.174 | Tubastatin A 0.256 | [3] 0.134 | [1] -0.081

CHMP5 (UniProt Q9NZZ3)
inactive: saracatinib 0.026 | sotrastaurin 0.018 | alvocidib 0.021 | Tubastatin A -0.012 | [3] -0.059 | defactinib -0.003 | rucaparib -0.038 | [1] -0.012 | encorafenib -0.022 | [2] 0.014

CHCHD2 (UniProt Q9Y6H1)
inactive: saracatinib 0 | sotrastaurin -0.031 | Tubastatin A -0.058 | [3] 0.087 | defactinib -0.002 | rucaparib -0.065 | [1] -0.049 | encorafenib -0.01 | [2] 0.061

CDC42BPB (UniProt Q9Y5S2)
inactive: saracatinib -0.089 | sotrastaurin -0.152 | Tubastatin A 0.055 | [3] 0.021 | defactinib -0.119 | rucaparib 0.146 | [1] -0.046 | encorafenib -0.029 | [2] -0.032

CDCP1 (UniProt Q9H5V8)
inactive: saracatinib 0.042 | sotrastaurin 0.028 | alvocidib -0.027 | Tubastatin A 0.012 | [3] -0.083 | defactinib -0.056 | rucaparib -0.032 | [1] -0.012 | encorafenib 0.034 | [2] -0.009

CEP135 (UniProt Q66GS9)
inactive: saracatinib -0.142 | sotrastaurin -0.305 | alvocidib 0.116 | rucaparib 0.072 | [1] 0.437 | encorafenib -0.189

CETN3 (UniProt O15182)
inactive: saracatinib -0.027 | sotrastaurin -0.022 | Tubastatin A 0.015 | [3] 0.128 | defactinib -0.008 | rucaparib -0.006 | [1] -0.003 | encorafenib -0.021 | [2] 0.082

CFDP1 (UniProt Q9UEE9)
inactive: saracatinib 0.062 | sotrastaurin 0.042 | alvocidib -0.007 | Tubastatin A -0.036 | [3] -0.047 | defactinib -0.027 | rucaparib -0.014 | [1] -0.072 | encorafenib -0.028 | [2] 0.019

CEP350 (UniProt Q5VT06)
inactive: saracatinib -0.173 | sotrastaurin -0.242 | alvocidib 0.153 | Tubastatin A 0.071 | rucaparib 0.219 | [1] 0.098 | encorafenib 0.267

CHD3 isoform 3 (UniProt Q12873)
inactive: saracatinib -0.067 | sotrastaurin -0.312 | Tubastatin A 0.096 | [3] -0.029 | defactinib -0.253 | rucaparib 0.134 | [1] -0.024 | encorafenib 0.136 | [2] -0.087

CEP76 (UniProt Q8TAP6)
inactive: saracatinib 0.013 | sotrastaurin 0.06 | alvocidib 0.084 | Tubastatin A 0.019 | [3] -0.011 | defactinib -0.092 | rucaparib -0.048 | [1] -0.038 | encorafenib -0.012 | [2] -0.005

CDK11B (UniProt P21127)
inactive: saracatinib -0.039 | sotrastaurin 0.035 | Tubastatin A 0.137 | [3] -0.098 | defactinib -0.162 | rucaparib -0.323 | [1] -0.052 | encorafenib 0.077 | [2] -0.039

CDSN (UniProt Q15517)
inactive: saracatinib -0.902 | sotrastaurin -0.063 | alvocidib -0.269 | Tubastatin A 0.035 | defactinib -0.056 | rucaparib -0.289 | [1] 0.211 | encorafenib -0.682 | [2] -0.099

CHMP3 (UniProt Q9Y3E7)
inactive: saracatinib 0.002 | sotrastaurin -0.051 | alvocidib -0.097 | Tubastatin A 0.016 | [3] 0.067 | defactinib -0.008 | rucaparib -0.002 | [1] -0.089 | encorafenib -0.027 | [2] 0.051

CFB (UniProt P00751)
inactive: saracatinib 0.211 | sotrastaurin 0.183 | alvocidib 0.031 | [3] 0.152 | defactinib 0.057 | rucaparib 0.173 | [1] -0.088 | encorafenib -0.288 | [2] 0.192

CENPS (UniProt Q8N2Z9)
inactive: saracatinib -0.064 | sotrastaurin 0.027 | alvocidib -0.008 | Tubastatin A -0.089 | [3] -0.064 | defactinib -0.027 | rucaparib -0.097 | [1] -0.011 | encorafenib 0.076 | [2] 0.061

CHCHD6 (UniProt Q9BRQ6)
inactive: saracatinib -0.057 | sotrastaurin 0.025 | alvocidib -0.028 | Tubastatin A -0.052 | [3] -0.035 | defactinib -0.073 | [1] -0.069 | [2] -0.169

CERS5 (UniProt Q8N5B7)
inactive: saracatinib 0.024 | sotrastaurin -0.026 | alvocidib -0.008 | Tubastatin A -0.049 | [3] -0.055 | defactinib -0.028 | rucaparib 0.032 | [1] -0.029 | encorafenib -0.064 | [2] 0.068

CDV3 (UniProt Q9UKY7)
inactive: saracatinib 0.009 | sotrastaurin -0.02 | alvocidib -0.033 | Tubastatin A -0.023 | [3] -0.051 | defactinib -0.025 | rucaparib -0.047 | [1] -0.018 | encorafenib -0.02 | [2] 0.007

CHID1 (UniProt Q9BWS9)
inactive: saracatinib -0.088 | sotrastaurin -0.059 | alvocidib 0.058 | Tubastatin A 0.016 | [3] 0.007 | defactinib 0.065 | rucaparib 0.036 | [1] -0.005 | encorafenib 0.043 | [2] 0.016

CFAP97 (UniProt Q9P2B7)
inactive: saracatinib -0.059 | sotrastaurin -0.018 | alvocidib 0.146 | Tubastatin A 0 | [3] -0.018 | defactinib 0.059 | [1] 0.059 | [2] 0.038

2 entries drawn at random from those above:
CHCHD6 (UniProt Q9BRQ6)
inactive: saracatinib -0.057 | sotrastaurin 0.025 | alvocidib -0.028 | Tubastatin A -0.052 | [3] -0.035 | defactinib -0.073 | [1] -0.069 | [2] -0.169

CFAP97 (UniProt Q9P2B7)
inactive: saracatinib -0.059 | sotrastaurin -0.018 | alvocidib 0.146 | Tubastatin A 0 | [3] -0.018 | defactinib 0.059 | [1] 0.059 | [2] 0.038

Next results follow:

CEP131 (UniProt Q9UPN4)
inactive: saracatinib -0.18 | sotrastaurin 0.07 | alvocidib 0.061 | Tubastatin A 0.069 | [3] -0.074 | [1] -0.14

CGGBP1 (UniProt Q9UFW8)
inactive: saracatinib -0.004 | sotrastaurin -0.003 | alvocidib -0.006 | Tubastatin A -0.006 | [3] 0.047 | defactinib -0.006 | rucaparib 0.046 | [1] -0.008 | encorafenib 0.026 | [2] 0.028

CFAP36 isoform 2 (UniProt Q96G28)
inactive: saracatinib -0.01 | sotrastaurin -0.023 | Tubastatin A 0.116 | [3] 0.1 | defactinib 0.13 | rucaparib 0.064 | [1] -0.058 | encorafenib 0.053 | [2] 0.05

CDK8 (UniProt P49336)
active: alvocidib 0.66
inactive: saracatinib -0.006 | sotrastaurin 0.074 | Tubastatin A -0.1 | [3] 0.053 | defactinib -0.059 | rucaparib 0.192 | [1] 0.018 | encorafenib -0.002 | [2] 0.064

CHD4 isoform 2 (UniProt Q14839)
inactive: saracatinib -0.006 | sotrastaurin -0.25 | Tubastatin A 0.03 | [3] 0 | defactinib -0.247 | rucaparib 0.043 | [1] 0.041 | encorafenib 0.133 | [2] 0.017

CHIC2 (UniProt Q9UKJ5)
inactive: saracatinib -0.107 | sotrastaurin 0.106 | alvocidib 0.041 | [3] 0.046 | defactinib -0.101 | rucaparib -0.041 | [1] 0.05 | encorafenib -0.037 | [2] 0.028

CHMP2B (UniProt Q9UQN3)
inactive: saracatinib 0.042 | sotrastaurin -0.025 | alvocidib -0.046 | Tubastatin A 0.011 | [3] -0.001 | defactinib -0.012 | rucaparib -0.025 | [1] -0.03 | encorafenib 0.044 | [2] 0.023

CDK5 (UniProt Q00535)
inactive: saracatinib -0.008 | sotrastaurin 0.094 | Tubastatin A -0.013 | [3] 0.029 | defactinib 0.143 | rucaparib 0.05 | [1] 0.006 | encorafenib 0.049 | [2] -0.042

CDC5L (UniProt Q99459)
inactive: saracatinib -0.055 | sotrastaurin 0.096 | alvocidib 0.004 | Tubastatin A 0.11 | [3] -0.156 | defactinib -0.109 | rucaparib 0.242 | [1] 0.189 | encorafenib 0.21 | [2] 0.163
